Experimental data reported in US9663815B2, “Cytosolically-active peroxidases as reporters for microscopy” (Massachusetts Institute of Technology, priority 2011, dated 2017).
Some entries share one result that the patent states for a list of compounds.

Test: Gel filtration chromatography, oligomerization state
Format: physicochemical
Conditions: for concentration at which dimerization is not detected / concentration at which some dimerization is seen: 250 nM to 250 μM
Procedure: APX, fluorescent protein, or miniSOG preparations were diluted to the desired concentrations using chilled (4° C.) PBS and then allowed to incubate at room temperature for 30 min to overnight. Samples (100 μL) were run on a Waters HPLC system over a Superdex 75 10/300 column (GE Healthcare) that had been pre-equilibrated in PBS, pH 7.4. Samples were run isocratically in PBS at a flow rate of 0.5 mL/min. Elution of APX was monitored at 280 nm and 405 nm (heme absorbance). Empower software (Waters) was used for analysis of elution profiles. Apparent MWs were determined against low molecular weight standards (GE). […] The apparent MW of the monomer for wt APX was assumed to be equal to the apparent MW of mAPX at 0.25 μM.
To investigate whether this localization is an artifact of APEX dimerization at high concentrations, the experiment was repeated using a tandem dimer of APX^W41F (two APX^W41F proteins linked with a short amino acid chain, denoted tdAPX) as well as miniSOG in place of APEX. Additionally, gel filtration chromatography (GFC) was used to assess the relative abundance of oligomers that formed at increasing tdAPX concentrations in vitro (5 μM, 20 μM, and 47 μM). Three different linker lengths (18, 23, and 28 amino acids) were tested. His6-tagged proteins were expressed and purified from E. coli. All three variants gave a major peak with an apparent molecular weight (MW) of ˜56 kDa, as expected for tdAPX. The apparent MW of the major peak remained constant as a function of concentration for all three constructs. […] Therefore, the 28 amino acid linker variant was selected as the optimized tandem dimer to be used in EM experiments.

Row | Molecule | concentration above which weak oligomerization is shown [µM] | concentration at which dimerization is not detected [µM] | concentration at which some dimerization is seen [µM]
1 | APEX: triple mutant K14D/W41F/E112K of pea APX, Enhanced APX reporter (protein, listed as Pisum sativum) MGKSYPTVSPDYQDAIEKAKRKLRGFIAEKKCAPLILRLAFHSAGTFDSKTKTGGPFGTIKHQAELAHGANNGLDIAVRLLEPIKEQFPIVSYADFYQLAGVVAVEITGGPKVPFHPGREDKPEPPPEGRLPDATKGSDHLRDVFGKAMGLSDQDIVALSGGHTIGAAHKERSGFEGPWTSNPLIFDNSYFTELLTGEKDGLLQLPSDKALLTDSVFRPLVEKYAADEDVFFADYAEAHLKLSELGFAEA | > 20 | < 10 | > 50
2 | mAPX: double mutant K14D/E112K of pea APX (SEQ ID NO:1), monomeric (protein, listed as Pisum sativum) MGKSYPTVSPDYQDAIEKAKRKLRGFIAEKKCAPLILRLAWHSAGTFDSKTKTGGPFGTIKHQAELAHGANNGLDIAVRLLEPIKEQFPIVSYADFYQLAGVVAVEITGGPKVPFHPGREDKPEPPPEGRLPDATKGSDHLRDVFGKAMGLSDQDIVALSGGHTIGAAHKERSGFEGPWTSNPLIFDNSYFTELLTGEKDGLLQLPSDKALLTDSVFRPLVEKYAADEDVFFADYAEAHLKLSELGFAEA |  | < 10 | > 50
